From paper PMC2664388 (Pharmaceutical research, 2008)

Assays:
[1] = Permeation across sclera/choroid/RPE, Valia-Chein side-bi-side cells; settings: 0.5 μCi/mL
[2] = Corneal permeation, side-bi-side diffusion apparatus; format: in vitro ADME, New Zealand albino rabbits; settings: 0.5 μCi/mL, 3h experiment

CN1C(=O)CN=C(c2ccccc2)c2cc(Cl)ccc21 [[^3H]diazepam]
Mean percent cumulative amount transported per hour across the sclera/choroid/RPE [1]: 0.08±0.02 percent per hour
Mean percent cumulative amount transported per hour across the cornea [2]: 1.62±0.04 percent per hour
